Measured values reported in doi:10.1101/2024.09.10.612038.

Target: CNOT1^mTID (human), A5YKK6
Assay: proximity labelling
Conditions: remark: other sources report otherwise

B1: CNOT4, O95628 1-575 (protein)
chain: MSRSPDAKEDPVECPLCMEPLEIDDINFFPCTCGYQICRFCWHRIRTDENGLCPACRKPYPEDPAVYKPLSQEELQRIKNEKKQKQNERKQKISENRKHLASVRVVQKNLVFVVGLSQRLADPEVLKRPEYFGKFGKIHKVVINNSTSYAGSQGPSASAYVTYIRSEDALRAIQCVNNVVVDGRTLKASLGTTKYCSYFLKNMQCPKPDCMYLHELGDEAASFTKEEMQAGKHQEYEQKLLQELYKLNPNFLQLSTGSVDKNKNKVTPLQRYDTPIDKPSDSLSIGNGDNSQQISNSDTPSPPPGLSKSNPVIPISSSNHSARSPFEGAVTESQSLFSDNFRHPNPIPSGLPPFPSSPQTSSDWPTAPEPQSLFTSETIPVSSSTDWQAAFGFGSSKQPEDDLGFDPFDVTRKALADLIEKELSVQDQPSLSPTSLQNSSSHTTTAKGPGSGFLHPAAATNANSLNSTFSVLPQRFPQFQQHRAVYNSFSFPGQAARYPWMAFPRNSIMHLNHTANPTSNSNFLDLNLPPQHNTGLGGIPVAGEEEVKVSTMPLSTSSHSLQQGQQPTSLHTTVA
- binding: binds

These are yes or no findings as the source states them, for the method shown. In cells and extracts the contact can be indirect. A yes stands for co-enrichment or nearness to the bait. Other partners may have been found.
